Test results taken from patent publication US20140219992A1.
No constants are given. Whether binding was seen depends on the method and setting. Some binding calls cover weakened binding; strength is not graded here.

Chains of the proteins cited; added tags and fusions are not shown. Lines headed by an entry give the natural chain unless they say otherwise; changes in a name come on top.
UniProt P03956: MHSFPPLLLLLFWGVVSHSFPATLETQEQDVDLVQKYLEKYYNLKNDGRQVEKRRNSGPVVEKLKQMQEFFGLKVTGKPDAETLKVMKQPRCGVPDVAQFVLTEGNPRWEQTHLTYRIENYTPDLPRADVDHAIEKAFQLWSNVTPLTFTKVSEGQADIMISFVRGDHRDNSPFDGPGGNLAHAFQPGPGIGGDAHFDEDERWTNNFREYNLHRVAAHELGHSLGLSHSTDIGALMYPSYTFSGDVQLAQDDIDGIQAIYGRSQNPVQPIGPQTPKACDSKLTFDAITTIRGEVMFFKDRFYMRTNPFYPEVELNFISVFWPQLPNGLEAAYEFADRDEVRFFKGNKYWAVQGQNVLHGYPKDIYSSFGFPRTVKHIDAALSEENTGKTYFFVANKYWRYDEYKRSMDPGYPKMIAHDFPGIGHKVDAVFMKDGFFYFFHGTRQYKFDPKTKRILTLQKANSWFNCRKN

Target: T1, a-2 macroglobulin of Zucker rat (rat) (UniProt P06238)
T1 sequence (looked up): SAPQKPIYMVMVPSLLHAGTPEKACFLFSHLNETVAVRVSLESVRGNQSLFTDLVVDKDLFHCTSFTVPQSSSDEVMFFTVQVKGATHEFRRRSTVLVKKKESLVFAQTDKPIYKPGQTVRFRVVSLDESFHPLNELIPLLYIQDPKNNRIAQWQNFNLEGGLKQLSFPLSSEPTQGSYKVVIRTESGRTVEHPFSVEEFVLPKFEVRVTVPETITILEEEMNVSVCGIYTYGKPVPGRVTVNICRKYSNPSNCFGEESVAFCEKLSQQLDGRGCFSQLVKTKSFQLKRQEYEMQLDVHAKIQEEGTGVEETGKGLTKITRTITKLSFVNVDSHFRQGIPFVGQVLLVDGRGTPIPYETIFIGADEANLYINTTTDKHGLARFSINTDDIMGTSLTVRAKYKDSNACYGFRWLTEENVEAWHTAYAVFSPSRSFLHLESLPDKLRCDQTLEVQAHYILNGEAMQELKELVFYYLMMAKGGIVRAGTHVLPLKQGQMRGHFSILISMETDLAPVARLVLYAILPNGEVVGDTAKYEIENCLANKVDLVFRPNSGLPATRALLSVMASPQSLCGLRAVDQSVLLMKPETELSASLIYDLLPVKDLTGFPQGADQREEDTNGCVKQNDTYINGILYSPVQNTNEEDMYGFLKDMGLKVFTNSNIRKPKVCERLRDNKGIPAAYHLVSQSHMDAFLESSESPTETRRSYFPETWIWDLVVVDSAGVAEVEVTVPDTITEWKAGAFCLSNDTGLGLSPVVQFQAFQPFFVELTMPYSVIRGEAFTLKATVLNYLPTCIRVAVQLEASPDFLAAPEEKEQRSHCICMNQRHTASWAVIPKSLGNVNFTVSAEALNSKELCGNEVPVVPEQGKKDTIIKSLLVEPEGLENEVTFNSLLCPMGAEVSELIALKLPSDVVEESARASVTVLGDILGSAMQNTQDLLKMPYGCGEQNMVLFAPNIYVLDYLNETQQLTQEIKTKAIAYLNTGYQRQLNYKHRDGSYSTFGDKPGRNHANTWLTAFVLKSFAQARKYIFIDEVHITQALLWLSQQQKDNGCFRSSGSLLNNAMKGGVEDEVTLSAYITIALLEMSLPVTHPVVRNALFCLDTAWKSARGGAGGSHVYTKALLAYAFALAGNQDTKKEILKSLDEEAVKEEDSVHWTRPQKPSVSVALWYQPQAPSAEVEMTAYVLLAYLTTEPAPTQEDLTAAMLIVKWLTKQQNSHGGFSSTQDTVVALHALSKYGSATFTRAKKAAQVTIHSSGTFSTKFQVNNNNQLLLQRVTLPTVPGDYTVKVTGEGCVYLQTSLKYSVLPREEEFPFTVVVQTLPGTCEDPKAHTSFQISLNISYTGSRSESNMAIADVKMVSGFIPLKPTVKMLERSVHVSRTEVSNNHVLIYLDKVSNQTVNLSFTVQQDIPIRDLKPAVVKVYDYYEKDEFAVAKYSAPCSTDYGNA
Test: immunoprecipitation of Zucker rat skin perfusate with anti-rat a-2 macroglobulin antibody, Western blot with anti-human MMP-1 antibody

binding	Substance
binds	wild-type human matrix metalloprotease 1 (hMMP-1), purified and trypsin-activated (from UniProt P03956 100-469) (enzyme)
binds	MMP-1 mutant GVSK (G159V/S208K), purified and trypsin-activated (from UniProt P03956 100-469) (enzyme)
